Results published in article PMC7819943, “Rice protein-binding microarrays: a tool to detect cis-acting elements near promoter regions in rice”.
The list shows a part of the results.

What follows are sequences tested against T1, OsSMF1 (Oryza sativa, UniProt Q6ZLB0 1-436) (assay: protein-binding microarray (RPBM); PBS, 2% BSA, 51.3 ng/ul salmon testes DNA, 50 uM zinc acetate, 200 nM TF, 25 C, 1 h; high values mean tight binding). Details: protein: recombinant; tags: N-terminal polyhistidine and DsRed monomer fusion (pET32a); chain copies: 2; label: CyDye5-dUTP incorporated in the synthesized complementary strand; 3' TTTTT single-stranded linker to array surface; dsDNA, one strand shown.
T1 sequence: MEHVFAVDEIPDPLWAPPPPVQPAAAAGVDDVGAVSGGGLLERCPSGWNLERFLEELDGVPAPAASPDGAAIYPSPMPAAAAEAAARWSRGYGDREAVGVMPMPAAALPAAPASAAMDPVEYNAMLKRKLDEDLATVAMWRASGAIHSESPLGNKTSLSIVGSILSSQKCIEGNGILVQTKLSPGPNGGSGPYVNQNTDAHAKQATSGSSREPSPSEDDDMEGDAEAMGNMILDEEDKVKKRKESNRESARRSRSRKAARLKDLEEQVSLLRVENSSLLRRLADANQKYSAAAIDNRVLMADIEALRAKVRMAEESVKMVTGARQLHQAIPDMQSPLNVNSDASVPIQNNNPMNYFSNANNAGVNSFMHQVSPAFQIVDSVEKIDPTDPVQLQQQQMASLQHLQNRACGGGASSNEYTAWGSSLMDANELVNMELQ
How it was run: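 A custom Agilent array was converted to double-stranded form by primer extension with Cy5-dUTP and blocked with 2% BSA. Protein at 200 nM in PBS with 2% BSA, salmon testes DNA and 50 µM zinc acetate was applied for 1 h at 25 °C, followed by washing. The proteins were polyhistidine–DsRed N-terminal fusions of transcription factors, expressed in E. coli BL21-CodonPlus and Ni–NTA-purified. The binding signal is per-feature fluorescence intensity (arbitrary units) from an Axon 4000B scanner.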

**Q.** “TCTAAACTGGTTTATTATCACCCGTCACGGATAACTATTACGGAGTCACCTAGTGCAG” was tested. Which binding signal did it give?
**A.** 3480 fluorescence intensity (a.u.)

**Q.** “CGCCCGCAACCACCCGTCCGCATCCGTCGCCTCACGCCTTCGGAGTCACCTAGTGCAG” was tested. Which binding signal did it give?
**A.** 3830 fluorescence intensity (a.u.)

**Q.** “TTTATCTCTACTTTCCAACTCATCTCCTCCGTTTTCCGCGCGGAGTCACCTAGTGCAG” was tested. Which binding signal did it give?
**A.** 5260 fluorescence intensity (a.u.)

**Q.** How did the binding signal turn out when “CAGTATAAATACCGAGGTGTGGTGACGCTTACTTCTCCACCGGAGTCACCTAGTGCAG” was run?
**A.** 3950 fluorescence intensity (a.u.)

**Q.** How did the binding signal turn out when “TCCGGTTAACGGGTGTCGTGGCTGGTGTGTTCGCGTGGGACGGAGTCACCTAGTGCAG” was run?
**A.** 3210 fluorescence intensity (a.u.)

**Q.** “CTCAAGACACTGTTGTAACAGTGCCTTTCTGCTGTTACAGCGGAGTCACCTAGTGCAG” was tested. Which binding signal did it give?
**A.** 16600 fluorescence intensity (a.u.)

**Q.** “ATTTGTAGTCTTTATGCATTTAAGACTTAAATAAATAGATCGGAGTCACCTAGTGCAG” was tested. Which binding signal did it give?
**A.** 3240 fluorescence intensity (a.u.)

**Q.** Which binding signal does the source give for “TCTCTCTCTATCGCTCGCGGTTGCTCAGGCAAGCTGAGAGCGGAGTCACCTAGTGCAG” here?
**A.** 22500 fluorescence intensity (a.u.)

**Q.** With “GTCGAGACAAACGGCACTGCCAGTAGGATTCGTTTCACATCGGAGTCACCTAGTGCAG” as the sequence, how does the binding signal read?
**A.** 4000 fluorescence intensity (a.u.)

**Q.** Which binding signal does the source give for “TTCGGGCCCCTGAATTGTTAGGTAATAACCCTACATCCTGCGGAGTCACCTAGTGCAG” here?
**A.** 13000 fluorescence intensity (a.u.)

**Q.** “GAGAAACCGTAGGGGACTAACCGTGCTTATCTCTGAAGTCCGGAGTCACCTAGTGCAG” was tested. Which binding signal did it give?
**A.** 15000 fluorescence intensity (a.u.)

**Q.** With “GACGTTCAGCCCCAACATGTCAGCTCGGAGATTTCTCTCCCGGAGTCACCTAGTGCAG” as the sequence, how does the binding signal read?
**A.** 3160 fluorescence intensity (a.u.)

**Q.** With “GAAAATCGATTCGTTGGTGTCATAACGTGTCTATCGGTGTCGGAGTCACCTAGTGCAG” as the sequence, how does the binding signal read?
**A.** 5590 fluorescence intensity (a.u.)

**Q.** Which binding signal does the source give for “ATAACCGTTTAGTCGACATGATGTAGGACATAAGGTGGACCGGAGTCACCTAGTGCAG” here?
**A.** 3280 fluorescence intensity (a.u.)

**Q.** Which binding signal does the source give for “CCCCATCGCGCAGCCACGTCTGCCTGGCACCGTCCCCATCCGGAGTCACCTAGTGCAG” here?
**A.** 7900 fluorescence intensity (a.u.)

**Q.** Which binding signal does the source give for “GTTGGTCCTCCTGACTCTGACTCTGGATGCCACTACCTGCCGGAGTCACCTAGTGCAG” here?
**A.** 4210 fluorescence intensity (a.u.)

**Q.** For “CGTCCGCCACGAAAGCCCTTCTTTCTCCACTCTACCGCGGCGGAGTCACCTAGTGCAG”, which binding signal is on record?
**A.** 3290 fluorescence intensity (a.u.)

**Q.** For “CGTCCCCGCCGTTGATCCCGGCAAGGCACACGCAAGACACCGGAGTCACCTAGTGCAG”, which binding signal is on record?
**A.** 3640 fluorescence intensity (a.u.)

**Q.** With “AGCTGAGTTACCAAATTATTACTTGATTTCTCTGTTGGAACGGAGTCACCTAGTGCAG” as the sequence, how does the binding signal read?
**A.** 3240 fluorescence intensity (a.u.)

**Q.** “AACGAGCCACGCAATCAGTATACTAGCTACCCCGTCCACACGGAGTCACCTAGTGCAG” was tested. Which binding signal did it give?
**A.** 3880 fluorescence intensity (a.u.)

**Q.** For “GGACTTGGAGCTCAGGCTCTAGACAACCACGCGATCAAATCGGAGTCACCTAGTGCAG”, which binding signal is on record?
**A.** 18300 fluorescence intensity (a.u.)

**Q.** For “TGACGAACACGGAAAGCAACCACGTGGCGACGAACACGGCCGGAGTCACCTAGTGCAG”, which binding signal is on record?
**A.** 6240 fluorescence intensity (a.u.)

**Q.** For “TCCCAAAGTAATATCTGGTTCCAATATTGTGTCAGCCATTCGGAGTCACCTAGTGCAG”, which binding signal is on record?
**A.** 3140 fluorescence intensity (a.u.)

**Q.** Which binding signal does the source give for “CTATATTTGCACTATAACGTTATATTTAATATATTTCCACCGGAGTCACCTAGTGCAG” here?
**A.** 3210 fluorescence intensity (a.u.)

**Q.** “CCACGGGCCGTGCTTGGGCCGGCGGCTCGGCACGTGGGTCCGGAGTCACCTAGTGCAG” was tested. Which binding signal did it give?
**A.** 3210 fluorescence intensity (a.u.)

**Q.** Which binding signal does the source give for “AGGTTTAACACTACCAATTAGGGTTTCGAACCAAACATATCGGAGTCACCTAGTGCAG” here?
**A.** 3530 fluorescence intensity (a.u.)

**Q.** Which binding signal does the source give for “TCGGCCACCCAACAAGTGGGCCCACCTGTCAGTGACTGTGCGGAGTCACCTAGTGCAG” here?
**A.** 4090 fluorescence intensity (a.u.)

**Q.** “TTTTGATTAGAACTGTATGTCCAGCTTGTGATGTACCTAACGGAGTCACCTAGTGCAG” was tested. Which binding signal did it give?
**A.** 10200 fluorescence intensity (a.u.)

**Q.** “TTTTATTTCTACTGCCACGTAGGTGCCACGTCAACGCCACCGGAGTCACCTAGTGCAG” was tested. Which binding signal did it give?
**A.** 49800 fluorescence intensity (a.u.)

**Q.** For “CCGGCGCGGCCGTCGCGCGGGGAGTGCGGTGGCGTTTCCACGGAGTCACCTAGTGCAG”, which binding signal is on record?
**A.** 3190 fluorescence intensity (a.u.)

**Q.** “AATGAGATACTTAGACTTGTGAGGCCCGACGTGTCCAATCCGGAGTCACCTAGTGCAG” was tested. Which binding signal did it give?
**A.** 4470 fluorescence intensity (a.u.)

**Q.** Which binding signal does the source give for “CTTGCATATGCGCCTATAAGTACGCGTGGCAGCCTCGATCCGGAGTCACCTAGTGCAG” here?
**A.** 6180 fluorescence intensity (a.u.)

**Q.** For “AAGGTTTTGTACGTAACCCTTTACAATTTCTAAAATTAGTCGGAGTCACCTAGTGCAG”, which binding signal is on record?
**A.** 21500 fluorescence intensity (a.u.)

**Q.** How did the binding signal turn out when “GTTCTAACTGAAACGATGATGACTGAGCAGTAGCAGACTACGGAGTCACCTAGTGCAG” was run?
**A.** 4430 fluorescence intensity (a.u.)

**Q.** How did the binding signal turn out when “CAAATATTTAGTCCCTGTTTCCCTGTCATTGCCTTCGACTCGGAGTCACCTAGTGCAG” was run?
**A.** 3400 fluorescence intensity (a.u.)

**Q.** “GTATCATTGGTTTTCATTTGTTTGGTGTGTCAGAGGCATACGGAGTCACCTAGTGCAG” was tested. Which binding signal did it give?
**A.** 4520 fluorescence intensity (a.u.)

**Q.** How did the binding signal turn out when “AGTATAACCACCGGGCCCCACGCGTCATCCTCCCGCGCGTCGGAGTCACCTAGTGCAG” was run?
**A.** 5930 fluorescence intensity (a.u.)

**Q.** “CATGGTGTCGTGCAAACCCTGTGTGCTCGGTCATGATACTCGGAGTCACCTAGTGCAG” was tested. Which binding signal did it give?
**A.** 3180 fluorescence intensity (a.u.)

**Q.** Which binding signal does the source give for “AAGGTGGTGGTCGAGGATGGCGTCATGCGCGTGTGGGATGCGGAGTCACCTAGTGCAG” here?
**A.** 4410 fluorescence intensity (a.u.)

**Q.** With “TGCGTCTCCCTTCCCCGGGCTATCCATCCATCTATCTACCCGGAGTCACCTAGTGCAG” as the sequence, how does the binding signal read?
**A.** 3320 fluorescence intensity (a.u.)

**Q.** For “GAGGTTTGAATCTCAACAGACACGCATTTCTCATAGCACACGGAGTCACCTAGTGCAG”, which binding signal is on record?
**A.** 4310 fluorescence intensity (a.u.)

**Q.** With “GTTCCTGTTGTTGCGTCTACTGCTGCTTCCGTGTCGCTGCCGGAGTCACCTAGTGCAG” as the sequence, how does the binding signal read?
**A.** 3550 fluorescence intensity (a.u.)
